The source of these data is patent US20220281976A1.

The chains behind the UniProt entries cited, without tags or fusion partners. Where a name states a change or a piece, a line headed by the entry shows the natural chain unless it says otherwise.
UniProt P20138: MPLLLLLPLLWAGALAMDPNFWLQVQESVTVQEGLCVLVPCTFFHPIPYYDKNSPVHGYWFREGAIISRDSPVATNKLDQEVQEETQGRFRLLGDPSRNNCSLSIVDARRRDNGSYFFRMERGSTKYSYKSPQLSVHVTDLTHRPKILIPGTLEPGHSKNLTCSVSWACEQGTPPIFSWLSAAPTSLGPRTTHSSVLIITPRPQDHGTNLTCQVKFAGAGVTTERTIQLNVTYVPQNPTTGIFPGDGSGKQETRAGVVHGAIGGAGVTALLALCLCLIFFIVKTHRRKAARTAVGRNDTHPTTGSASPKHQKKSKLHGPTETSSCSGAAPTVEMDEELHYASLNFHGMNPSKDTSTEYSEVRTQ

Residue numbers refer to the chain shown, from its start. No constants are given. Whether binding was seen depends on the method and setting. Some results given as binding are weak or reduced against the parent protein; the word gives no strength.

In assay [1] the target is human CD33 Fc fusion protein (human) (UniProt P20138). Nature of the assay: Biacore SPR, immobilised human CD33/Fc, antibody 200 nM, pH 7.3, 6.0, 5.0.
For assay [2] the target is unchanged. Nature of the assay: SPR (BiaCore T200, 25 C), 200 nM antibody over human CD33/Fc chimera immobilised on a CM5 chip, running buffer at pH 7.3, 6.0 or 5.0. A general note: Surface plasmon resonance follows binding to a sensor surface in real time, without labels.
Assay [3] shares this target. The assay can be described thus: red blood cell solid adhesion assay: 25 ug/ml Fab bound to plate-bound CD33-Fc before adding red blood cells; blocked ligand: sialic acid ligands on red blood cells.

B1: C-44 (antibody, V domains shown)
VH: QLQLQESGPGLVKPSETLSLTCTVSGGSISSSSYAWGWIRQPPGKGLEWIGSIYYSGSTYYNPSLKSRVTISVDTSKNQFSLKLSSVTAADTAVYYCAREGYVAAYGMDVWGQGTTVTVSS
VL: DIQMTQSPSSLSASVGDRVTITCRASQSISSYLNWYQQKPGKAPKLLIYAASSLQSGVPSRFSGSGSGTDFTLTISSLQPEDFATYYCQQAYYPPWTFGGGTKVEIK
B1: the binding entry in assay [1] and in assay [2] was “binds” throughout.

B2: Fab fragment of antibody C-65 (Fab, V domains shown)
VH: QVQLVQSGAEVKKPGASVKVSCKASGYTFTSYYMHWVRQAPGQGLEWMGVINPSGGSTSYAQKFQGRVTMTRDTSTSTVYMELSSLRSEDTAVYYCARESQYYDVHGMDVWGQGTTVTVSS
VL: B1 VL with A91Q, Y93T, P94L, W96P
Regarding B2, the binding entry in assay [3] is “binds”.
